Our source for the binding signal values is publication PMC7862700.

Common to all, as to assay: DAPPL (digital affinity profiling via proximity ligation, sequencing)
Common to all, as to settings: 10 mM Tris-HCl pH 7.5, 50 mM NaCl, 1 mM DTT, 4% glycerol, room temperature, 30 min; GST-TFs on glutathione beads, 16-mer random dsDNA library, 0.1% …; high values mean tight binding; double strand, one strand shown; scale: fold enrichment (6-mer frequency, TF over GST control)

One experiment has as its target T1, SPIC (UniProt Q8N5J4).
T1 sequence: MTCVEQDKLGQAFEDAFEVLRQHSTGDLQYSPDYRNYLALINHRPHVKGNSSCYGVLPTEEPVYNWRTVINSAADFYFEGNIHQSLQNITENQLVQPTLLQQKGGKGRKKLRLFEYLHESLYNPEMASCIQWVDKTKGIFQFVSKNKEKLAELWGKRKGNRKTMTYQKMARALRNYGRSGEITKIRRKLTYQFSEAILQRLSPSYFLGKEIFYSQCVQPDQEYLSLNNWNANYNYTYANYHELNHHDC

For another experiment, the target named is T2, ETS2 (UniProt P15036).
T2 sequence: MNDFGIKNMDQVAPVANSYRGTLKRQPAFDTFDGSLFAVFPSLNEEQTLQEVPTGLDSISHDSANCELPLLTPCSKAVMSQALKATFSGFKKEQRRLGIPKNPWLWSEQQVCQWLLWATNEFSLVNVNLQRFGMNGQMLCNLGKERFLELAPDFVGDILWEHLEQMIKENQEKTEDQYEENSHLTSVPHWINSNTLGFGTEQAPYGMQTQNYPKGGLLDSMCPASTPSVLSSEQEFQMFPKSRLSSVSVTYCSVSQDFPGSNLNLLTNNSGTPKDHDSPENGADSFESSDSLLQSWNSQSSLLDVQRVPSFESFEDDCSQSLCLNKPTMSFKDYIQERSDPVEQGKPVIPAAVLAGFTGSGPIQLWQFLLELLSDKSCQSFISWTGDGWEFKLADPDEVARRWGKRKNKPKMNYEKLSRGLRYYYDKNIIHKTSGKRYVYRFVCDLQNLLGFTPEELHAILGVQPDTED

The target in the next experiment is T3, ETV3 (UniProt P41162-2).
T3 sequence: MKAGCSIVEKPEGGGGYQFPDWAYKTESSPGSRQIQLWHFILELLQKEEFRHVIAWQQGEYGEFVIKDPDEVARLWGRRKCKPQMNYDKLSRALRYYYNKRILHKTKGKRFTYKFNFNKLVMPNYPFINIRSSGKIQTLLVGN

The next experiment deals with T4, ELK3 (UniProt P41970).
T4 sequence: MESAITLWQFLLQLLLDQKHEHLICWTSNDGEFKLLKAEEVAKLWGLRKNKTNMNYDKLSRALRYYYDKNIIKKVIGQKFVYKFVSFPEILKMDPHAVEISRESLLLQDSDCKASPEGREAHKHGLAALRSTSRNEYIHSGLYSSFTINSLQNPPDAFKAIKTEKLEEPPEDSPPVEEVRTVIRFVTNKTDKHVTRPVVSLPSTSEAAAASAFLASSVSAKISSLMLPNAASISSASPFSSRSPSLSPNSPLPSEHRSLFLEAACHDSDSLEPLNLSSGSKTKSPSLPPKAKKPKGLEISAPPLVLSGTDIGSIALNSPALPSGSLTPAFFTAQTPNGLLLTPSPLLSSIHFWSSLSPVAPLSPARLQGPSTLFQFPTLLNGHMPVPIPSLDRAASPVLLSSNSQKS

The list shows a part of the results, in another mix than the full data. At the low end of the ranking the order means little.

For the sequence ATTAAC, the binding signal was 1.3 with SPIC and 1.27 with ETS2.

As to CGTAAC, the binding signal was found to be 1.27 with SPIC and 1.15 with ETS2.

For GCTTGG, the binding signal was 1.03 with SPIC and 1.14 in the experiment with ETS2.

CAAACG: the binding signal with SPIC came to 0.988; in the experiment with ETS2 it was 0.997.

In the case of TTCGGT, the binding signal came out at 1.34 with SPIC and 1.16 in the experiment with ETS2.

Regarding TTCTTG, the binding signal was found to be 1.31 with SPIC and 1.39 with ETS2.

As for ACGATT, the values for the binding signal with SPIC and with ETS2 were 1.39 and 1.26, respectively.

As for ATCGCA, the binding signal with SPIC was 0.98; with ETS2, 1.02.

As to GCACAA, the binding signal with SPIC came to 1.09; with ETS2, 1.12.

Turning to CGCTTA, the binding signal in the experiment with SPIC worked out at 1.22; with ETS2 it was 1.25.

With GTTTGC, the results for the binding signal with SPIC and with ETS2 were 1.2 and 1.08, respectively.

For GTAATA, the binding signal amounted to 1.27 with SPIC and 1.11 with ETS2.

Regarding GGAAGT, the binding signal with SPIC amounted to 3.41; in the experiment with ETS2, 3.2.

As for CATCAC, the binding signal amounted to 1.26 in the experiment with SPIC and 1.12 with ETS2.

For the sequence CCGGCT, the binding signal came to 1.46 with SPIC and 1.71 in the experiment with ETS2.

In the case of TCTCAG, the results for the binding signal with SPIC and in the experiment with ETS2 were 1.16 and 1.37, respectively.

Regarding CCTTGC, the values for the binding signal with SPIC and with ETS2 were 1.45 and 1.22, respectively.

Turning to CAACTA, the binding signal with SPIC is 1.22; in the experiment with ETS2, 1.3.

For the sequence GTGTTC, the binding signal in the experiment with SPIC was determined as 1.36; with ETS2, 1.17.

As to AAACAA, the binding signal with SPIC was determined as 1.33; with ETS2, 1.32.

In the case of GAAACG, the binding signal with SPIC was found to be 1.19; in the experiment with ETS2 it was 1.17.

For AATGTT, the binding signal with SPIC was found to be 1.68; with ETS2, 1.56.

On to GCCCCA, for which the binding signal in the experiment with SPIC amounted to 1.05; with ETS2, 0.995.

TAACGT: the results for the binding signal with SPIC and with ETS2 were 0.928 and 0.993, respectively.

GCACCT: the binding signal was found to be 1 in the experiment with SPIC and 0.999 in the experiment with ETS2.

For the sequence CATGAC, the binding signal with SPIC stood at 0.986; in the experiment with ETS2, 1.2.

For the sequence ACAATT, the binding signal is 1.17 with SPIC and 1.29 with ETS2.

CCGCCA: the binding signal with SPIC was determined as 1.37; with ETS2, 1.22.

In the case of TTATGC, the binding signal with SPIC was determined as 1.55; with ETS2, 1.28.

Take TCGTCC: the binding signal with SPIC was determined as 0.979; in the experiment with ETS2, 0.981.

In the case of ACTCCA, the binding signal with SPIC came to 1.18; with ETV3, 1.17.

On to AACCGA, for which the binding signal turned out to be 1.09 with SPIC and 0.977 with ETV3.

Take TAAGTA: the binding signal stood at 1.25 with SPIC and 1.23 in the experiment with ETV3.

For TGCGAA, the binding signal in the experiment with SPIC was 1.02; in the experiment with ETV3, 1.16.

Take TATAGC: the binding signal in the experiment with ELK3 came to 1.1; with SPIC, 1.31; with ETS2, 1.18.

Regarding CATCAG, the binding signal with SPIC came to 0.924; with ETV3, 0.96.

Regarding GCGCTT, the binding signal came to 1.26 with SPIC and 1.42 with ETV3.

For ACTTCG, the binding signal with SPIC came to 1.55; with ETV3 it was 1.42.

In the case of AAACCT, the binding signal amounted to 1.09 in the experiment with SPIC and 1.1 in the experiment with ETV3.

As for ACTTGA, the binding signal with ELK3 is 0.83; in the experiment with SPIC, 1; with ETS2 it was 0.913.

For CACGCA, the binding signal was 1.14 in the experiment with ELK3, 0.953 with SPIC and 1.03 with ETS2.

As for CCACCA, the results for the binding signal in the experiment with SPIC and with ETV3 were 0.887 and 0.967, respectively.

Turning to TTTTAG, the binding signal with SPIC is 1.13; with ETV3 it was 1.21.

Take GCTGGC: the binding signal with SPIC came to 1.12; in the experiment with ETV3, 1.1.

Regarding GCGCGC, the binding signal turned out to be 1.01 with ELK3, 1.15 with SPIC and 0.967 in the experiment with ETS2.

As for TTTCGC, the binding signal in the experiment with SPIC is 1.2; in the experiment with ETV3 it was 1.13.

Take TGCTTA: the binding signal is 1.32 in the experiment with SPIC and 1.18 with ETV3.

As for TAAATC, the binding signal with SPIC was found to be 1.2; in the experiment with ETV3, 1.18.

As for AAATCG, the binding signal with ELK3 is 1.04; with SPIC, 1; in the experiment with ETS2 it was 0.969.

In the case of CCCCAC, the binding signal with ELK3 worked out at 1.34; with SPIC, 1.33; with ETS2, 1.22.

For TGTCCG, the binding signal in the experiment with SPIC was 1.36; in the experiment with ETV3, 1.6.

For the sequence ACTGCA, the figures for the binding signal with SPIC and in the experiment with ETV3 were 1.34 and 1.17, respectively.

TCAGCA: the binding signal came out at 1.1 in the experiment with SPIC and 0.982 with ETV3.

In the case of GCCGCA, the binding signal with SPIC turned out to be 0.847; with ETV3, 1.

As to AAGGGC, the figures for the binding signal with SPIC and with ETV3 were 0.999 and 1.07, respectively.

On to GTTTCT, for which the binding signal with ELK3 worked out at 1.14; with SPIC, 1.28; with ETS2, 1.28.

Consider AGAAAC, for which the binding signal with ELK3 is 0.983; with SPIC, 0.995; in the experiment with ETS2 it was 0.992.

On to TGCCCC, for which the values for the binding signal in the experiment with ELK3, in the experiment with SPIC and with ETS2 were 1.18, 1.41 and 1.12, respectively.

For the sequence CTCCGA, the binding signal with SPIC stood at 1.51; with ETV3, 1.3.

For TAGCAT, the binding signal with SPIC is 1.07; with ETV3 it was 1.16.

In the case of TCTGAC, the binding signal with ELK3 came out at 1.24; with SPIC it was 1.04; in the experiment with ETS2, 1.2.

Regarding GTTACC, the binding signal with ELK3 stood at 1.08; with SPIC it was 1.03; with ETS2, 1.09.

Regarding TGGTCA, the figures for the binding signal with ELK3, in the experiment with SPIC and in the experiment with ETS2 were 0.941, 1.07 and 1.13, respectively.
